Here are results for two molecules from patent US20200199213A1.

These are yes or no findings as the source states them, for the method shown. In cells and extracts the contact can be indirect. Some binding calls cover weakened binding; strength is not graded here. Where a sequence is shown, tags or fusion partners need not be part of it.

The target in assay [1] is T1, ANGPTL8 fusion protein after PreScission cleavage, SEQ ID NO:20 (human) (UniProt Q6UXH0).
T1 sequence: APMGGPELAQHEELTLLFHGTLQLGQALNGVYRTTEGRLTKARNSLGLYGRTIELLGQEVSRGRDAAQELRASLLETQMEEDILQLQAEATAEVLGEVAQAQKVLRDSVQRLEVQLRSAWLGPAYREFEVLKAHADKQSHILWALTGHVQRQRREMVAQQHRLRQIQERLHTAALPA
The assay can be described thus: co-expression, co-purification (Ni-NTA, size exclusion), SDS-PAGE.

In assay [2] the target is T2, ANGPTL3 fusion protein (human ANGPTL3, 3-Ala linker, FLAG-tag) after purification, SEQ ID NO:19 (human) (UniProt Q9Y5C1).
T2 sequence: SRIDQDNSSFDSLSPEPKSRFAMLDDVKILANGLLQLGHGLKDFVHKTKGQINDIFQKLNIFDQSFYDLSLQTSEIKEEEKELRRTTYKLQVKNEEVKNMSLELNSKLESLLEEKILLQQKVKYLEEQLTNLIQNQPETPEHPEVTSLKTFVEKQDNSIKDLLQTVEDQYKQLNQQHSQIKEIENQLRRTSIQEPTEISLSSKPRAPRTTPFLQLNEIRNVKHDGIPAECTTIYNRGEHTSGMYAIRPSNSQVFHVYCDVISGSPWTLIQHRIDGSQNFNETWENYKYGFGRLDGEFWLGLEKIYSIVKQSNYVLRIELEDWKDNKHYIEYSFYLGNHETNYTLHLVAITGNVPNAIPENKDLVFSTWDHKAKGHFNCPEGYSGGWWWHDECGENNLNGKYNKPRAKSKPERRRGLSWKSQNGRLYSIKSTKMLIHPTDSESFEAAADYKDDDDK
Kind of assay: co-purification after co-expression in HEK293F: Ni-NTA capture through HIS-HSA-ANGPTL8, Superdex 200, PreScission cleavage, second Superdex 200; 4-20% TG TGX SDS-PAGE gel, Coomassie stained.

B1: ANGPTL3 fusion protein (human ANGPTL3, 3-Ala linker, FLAG-tag) after purification, SEQ ID NO:19 (protein)
chain: T2 sequence
Regarding B1, the binding result in assay [1] was “binds”.

B2: ANGPTL8 fusion protein after PreScission cleavage, SEQ ID NO:20 (protein)
chain: T1 sequence
Take B2: the binding entry in assay [2] was “binds”.
